Experimental data reported in publication PMC6523098.
No constants are given. Whether binding was seen depends on the method and setting. Binding calls can cover weak binding; strength is not graded here. Sequences can lack the tags named with a protein.

Biological target: BrRAP2.4 PEST motif alone (GST fusion) (Brassica rapa)
Experiment: pull-down; GST:BrRAP2.4 proteins on beads, eluted His:AtBPM3; 100 mM Tris/HCl pH 7.5, 150 mM NaCl, 0.1% Tween-20, 4 °C, one hour; both purified

binding: binds
B1: His:AtBPM3 (protein, UniProt O22286 1-408)
chain: MSTVGGIEQLIPDSVSTSFIETVNGSHQFTIQGYSLAKGMSPGKFIQSDIFSVGGYDWAIYFYPDGKNPEDQSSYISLFIALASDSNDIRALFELTLMDQSGKGKHKVHSHFDRALEGGPYTLKYKGSMWGYKRFFKRSALETSDYLKDDCLVINCTVGVVRARLEGPKQYGIVLPLSNMGQGLKDLLDSEVGCDIAFQVGDETYKAHKLILAARSPVFRAQFFGPIGNNNVDRIVIDDIEPSIFKAMLSFIYTDVLPNVHEITGSTSASSFTNMIQHLLAAADLYDLARLKILCEVLLCEKLDVDNVATTLALAEQHQFLQLKAFCLEFVASPANLGAVMKSEGFKHLKQSCPTLLSELLNTVAAADKSSTSGQSNKKRSASSVLGCDTTNVRQLRRRTRKEVRAVS
